Our source for the binding values is article PMC8881611, “A mechanism of origin licensing control through autoinhibition of S. cerevisiae ORC·DNA·Cdc6” (Nature Communications, 2022).

Assay [1] addresses T1, S. cerevisiae Orc2 (S. cerevisiae), P32833.
T1 chain: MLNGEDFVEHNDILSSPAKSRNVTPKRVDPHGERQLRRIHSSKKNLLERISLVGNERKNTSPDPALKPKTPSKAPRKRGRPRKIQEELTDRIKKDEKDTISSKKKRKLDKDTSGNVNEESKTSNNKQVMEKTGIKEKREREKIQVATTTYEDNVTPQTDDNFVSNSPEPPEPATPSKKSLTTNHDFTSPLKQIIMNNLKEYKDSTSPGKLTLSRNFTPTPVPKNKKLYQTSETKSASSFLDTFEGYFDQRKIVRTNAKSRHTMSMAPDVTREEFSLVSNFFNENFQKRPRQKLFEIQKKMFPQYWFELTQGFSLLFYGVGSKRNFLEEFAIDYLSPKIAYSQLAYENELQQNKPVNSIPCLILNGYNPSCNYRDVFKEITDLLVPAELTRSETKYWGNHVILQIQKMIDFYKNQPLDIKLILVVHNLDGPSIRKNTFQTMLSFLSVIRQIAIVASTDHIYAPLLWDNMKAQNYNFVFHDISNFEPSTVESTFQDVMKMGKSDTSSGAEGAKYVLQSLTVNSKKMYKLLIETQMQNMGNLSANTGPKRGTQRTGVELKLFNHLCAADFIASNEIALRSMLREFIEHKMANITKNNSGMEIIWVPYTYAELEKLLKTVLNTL
Nature of the assay: cryo-EM structure; ScORC (2.5 uM), 84 bp ARS1 DNA (3 uM) and ScCdc6 (6.8 uM) reconstituted with 1 mM ATP, purified on Superose 6 in 25 mM HEPES-KOH pH 7.6, 250 mM potassium acetate, 10 mM magnesium acetate, 1 mM DTT, 0.2 mM ATP; not cross-linked; masked 3D classification; both purified. To be noted: remark: other sources report otherwise.

For the next assay, the target named is T2, S. cerevisiae Orc1 (S. cerevisiae, UniProt P54784 1-914).
T2 construct: Orc1, S. cerevisiae, wild type; Stood in the assays as a subunit of ScORC·DNA(·Cdc6); also called ScOrc1; source: High5 insect cells, co-expressed and purified as a subunit of ScORC; not shown: His6, N-terminal, cleaved
T2 sequence (looked up): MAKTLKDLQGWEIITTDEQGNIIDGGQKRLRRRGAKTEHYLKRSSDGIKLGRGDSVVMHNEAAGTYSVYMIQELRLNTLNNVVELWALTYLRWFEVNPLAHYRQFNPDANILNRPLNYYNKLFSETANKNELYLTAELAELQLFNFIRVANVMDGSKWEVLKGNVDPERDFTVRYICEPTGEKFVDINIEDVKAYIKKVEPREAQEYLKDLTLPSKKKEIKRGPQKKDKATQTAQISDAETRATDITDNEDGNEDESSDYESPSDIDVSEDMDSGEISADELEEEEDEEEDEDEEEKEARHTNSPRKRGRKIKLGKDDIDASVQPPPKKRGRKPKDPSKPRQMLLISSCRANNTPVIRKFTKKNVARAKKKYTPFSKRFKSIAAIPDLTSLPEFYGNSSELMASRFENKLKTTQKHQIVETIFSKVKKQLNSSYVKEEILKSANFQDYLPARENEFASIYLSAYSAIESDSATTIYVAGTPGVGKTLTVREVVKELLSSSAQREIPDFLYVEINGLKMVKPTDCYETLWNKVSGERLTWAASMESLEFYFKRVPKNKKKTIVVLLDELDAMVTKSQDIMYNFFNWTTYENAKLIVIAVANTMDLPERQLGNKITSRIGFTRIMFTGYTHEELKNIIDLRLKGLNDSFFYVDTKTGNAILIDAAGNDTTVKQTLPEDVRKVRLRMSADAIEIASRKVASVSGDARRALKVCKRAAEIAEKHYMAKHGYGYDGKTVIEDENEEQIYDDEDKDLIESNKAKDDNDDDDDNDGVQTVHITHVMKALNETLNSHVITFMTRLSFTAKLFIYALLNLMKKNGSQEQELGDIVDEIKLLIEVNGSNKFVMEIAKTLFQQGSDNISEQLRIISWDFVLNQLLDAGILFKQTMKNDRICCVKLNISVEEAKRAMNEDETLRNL
The assay is described as above.

Results are given in words; binding and its absence hold for the method and conditions named. Some results given as binding are weak or reduced against the parent protein; the word gives no strength.

B1: S. cerevisiae Cdc6 (ScCdc6), full length (natural protein, UniProt P09119 1-513, looked up)
chain: MSAIPITPTKRIRRNLFDDAPATPPRPLKRKKLQFTDVTPESSPEKLQFGSQSIFLRTKALLQKSSELVNLNSSDGALPARTAEYEQVMNFLAKAISEHRSDSLYITGPPGTGKTAQLDMIIRQKFQSLPLSLSTPRSKDVLRHTNPNLQNLSWFELPDGRLESVAVTSINCISLGEPSSIFQKIFDSFQDLNGPTLQIKNMQHLQKFLEPYHKKTTFVVVLDEMDRLLHANTSETQSVRTILELFLLAKLPTVSFVLIGMANSLDMKDRFLSRLNLDRGLLPQTIVFQPYTAEQMYEIVIQKMSSLPTIIFQPMAIKFAAKKCAGNTGDLRKLFDVLRGSIEIYELEKRFLLSPTRGSLNSAQVPLTPTTSPVKKSYPEPQGKIGLNYIAKVFSKFVNNNSTRTRIAKLNIQQKLILCTIIQSLKLNSDATIDESFDHYIKAITKTDTLAPLQRNEFLEICTILETCGLVSIKKTKCKGKTKRFVDKIDVDLDMREFYDEMTKISILKPFLH
notes: Cdc6, S. cerevisiae, wild type; also called co-loader; source: High5 insect cells, baculovirus, purified as ScORC (HisTrap, amylose, TEV cleavage, HisTrap, Superdex 200); not shown: His6, N-terminal, cleaved; MBP, N-terminal, cleaved
With B1, in assay [1], the binding result is reported as “binds”.

B2: S. cerevisiae Orc4 (protein, UniProt P54791 1-529)
chain: MTISEARLSPQVNLLPIKRHSNEEVEETAAILKKRTIDNEKCKDSDPGFGSLQRRLLQQLYGTLPTDEKIIFTYLQDCQQEIDRIIKQSIIQKESHSVILVGPRQSYKTYLLDYELSLLQQSYKEQFITIRLNGFIHSEQTAINGIATQLEQQLQKIHGSEEKIDDTSLETISSGSLTEVFEKILLLLDSTTKTRNEDSGEVDRESITKITVVFIFDEIDTFAGPVRQTLLYNLFDMVEHSRVPVCIFGCTTKLNILEYLEKRVKSRFSQRVIYMPQIQNLDDMVDAVRNLLTVRSEISPWVSQWNETLEKELSDPRSNLNRHIRMNFETFRSLPTLKNSIIPLVATSKNFGSLCTAIKSCSFLDIYNKNQLSNNLTGRLQSLSDLELAILISAARVALRAKDGSFNFNLAYAEYEKMIKAINSRIPTVAPTTNVGTGQSTFSIDNTIKLWLKKDVKNVWENLVQLDFFTEKSAVGLRDNATAAFYASNYQFQGTMIPFDLRSYQMQIILQELRRIIPKSNMYYSWTQL
In the case of B2, in the assay with S. cerevisiae Orc1, the binding entry is reported as “binds”.
